Experimental data from patent US10801050B2, “Microorganism modified for the assimilation of levulinic acid” (priority 2015, dated 2020).

B1: NDK_CUPNH (protein, UniProt Q0K958 1-141, looked up)
Nucleoside diphosphate kinase: MAIERTLSIIKPDAVAKNVIGQIYARFEAAGLKIVAAKMVHLSRGEAEQFYAVHKERPFFKDLVDFMVSGPVMIQALEGENAIAKNRDLMGATDPKKAEKGTIRADFADSIDANAVHGSDAAETAAVEVSFFFPGMNVYSR
B2: METK_CUPNH (protein, UniProt Q0KF39 1-387, looked up)
S-adenosylmethionine synthase: MANDFLFTSESVSEGHPDKVADQISDAVLDAILAQDKYARVAAETLCNTGLVVLAGEITTTANVDYIQIARDTIKRIGYDNTDYGIDYKGCAVLVAYDKQSPDIAQGVDRASDDYLNQGAGDQGLMFGYACDETPELMPFPIYYAHRLVERQSLLRRDGRLPWLRPDAKSQVTVRYVDGKPHSVDTVVLSTQHSPDITQAQIREAVIEEIIKPVLPAEMLKETKYLVNPTGRFVIGGPQGDCGLTGRKIIVDTYGGASPHGGGAFSGKDPSKVDRSAAYAARYVAKNVVASGLARQCQVQVSYAIGVARPINVTVYTEGTGKIPDAKIAELVQEHFDLRPKGIVQMLDLLRPIYEKTAAYGHFGREEPEFSWEATDKAAALRAAAGL
B3: DAPD_CUPNH (protein, UniProt Q0KA05 1-275, looked up)
2,3,4,5-tetrahydropyridine-2,6 …: MTQALQALIDQAWEDRTSLSPKSAPNDIREAVANVISQLDSGALRVAEKQGKDWIVNQWIKKAVLLSFRLEDNAPMSAGGFAQFYDKVPTKFANWSADDFAKAGFRVVPPAVARRGSFIAKNAVLMPSYVNIGAYVDEGTMVDTWATVGSCAQIGKNVHLSGGVGIGGVLEPLQANPVIIEDNCFIGARSEVVEGVIVEENSVISMGVYLGQSTKIYDRETGEIHYGRVPAGSVVVAGNLPSKDGKYSLYCAVIVKKVDAQTRAKTSLNDLLRGD
B4: EFP_CUPNH (protein, UniProt Q0K8N9 1-186, looked up)
Elongation factor P: MKIAQELRVGNVFMIGGDPMVVQKAEYNKSGRNAAVVKMKYKNLLTDAPGESVFKADDKFEVVVLERRECTYSYFADPMYVFMDADYNQYEVEKDSMGDSLNYLEDGMNVEVVFYNDKAISVEMPTTLVREIVYTEPAVKGDTSSGKVLKGAKINTGFELQVPLFCNIGDKIEIDTRTGEYRSRAN
B5: SUCC_CUPNH (protein, UniProt Q0KE75 1-388, looked up)
Succinate--CoA ligase …: MNIHEYQGKEILRKYNVPVPRGIPAFSVDEALKAAETLGGPVWVVKAQIHAGGRGKGGGVKVAKSIDDVKTYASNILGMQLVTHQTGPEGKKVNRLLIEEGADIKKELYVSLVVDRVSQKVALMASSEGGMDIEEVAAHSPEKIHTLIIEPSVGLTDAEADDIARKIGVPDTSVAQARQALQGLYKAFYETDASLAEINPLILTGDGKVIALDAKFNFDSNALFRHPEIVAYRDLDEEDANEIEASKFDLAYISLDGNIGCLVNGAGLAMATMDTIKLFGGEPANFLDVGGGATTEKVTEAFKLMLSNKNVQAILVNIFGGIMRCDVIAEGVISASKAVHLTVPLVVRMKGTNEDLGKKMLADSGLPIISADTMEEAAQKVVAAAAGK
B6: THIL_CUPNH (protein)
chain: MTDVVIVSAARTAVGKFGGSLAKIPAPELGAVVIKAALERAGVKPEQVSEVIMGQVLTAGSGQNPARQAAIKAGLPAMVPAMTINKVCGSGLKAVMLAANAIMAGDAEIVVAGGQENMSAAPHVLPGSRDGFRMGDAKLVDTMIVDGLWDVYNQYHMGITAENVAKEYGITREAQDEFAVGSQNKAEAAQKAGKFDEEIVPVLIPQRKGDPVAFKTDEFVRQGATLDSMSGLKPAFDKAGTVTAANASGLNDGAAAVVVMSAAKAKELGLTPLATIKSYANAGVDPKVMGMGPVPASKRALSRAEWTPQDLDLMEINEAFAAQALAVHQQMGWDTSKVNVNGGAIAIGHPIGASGCRILVTLLHEMKRRDAKKGLASLCIGGGMGVALAVERK
modifications: Uniprot name: THIL_CUPNH. Acetyl-CoA acetyltransferase
B7: KDSA_CUPNH (protein, UniProt Q0KCE4 1-289, looked up)
2-dehydro-3-deoxyphosphooctona …: MKLCGFEAGLDKPFFLIAGPCVIESEQMALDTAGELKAITAELGIPFIYKSSFDKANRSSGKSFRGLGMEKGLEILATVKREIGVPVLTDIHEIDEIKPVAAVVDVLQTPAFLCRQTDFIRACAQSGKPVNIKKGQFLAPHDMKNVIDKARDAAREAGLPDDVFMACERGVSFGYNNLVSDMRSLAIMRETGAPVVFDATHSVQLPGGQGTSSGGQREFVPVLSRAAVATGVAGLFMETHPDPSKAMSDGPNAVPLSRMKELLAVLKELDTLVKRAGFLEDNFGWPACA
B8: TIG_CUPNH (protein, UniProt Q0KBK5 1-451, looked up)
Trigger factor: MSNVIENLGKLDRKVTLAIPKAEVEKEKQERLVRLSKTVKMSGFRPGKVPMKMVEKQYGQQVEFEVRFDKAARKFFDITKEQDVKVAGQPKFEIKNEGVGEDEVAFDATFEVYPEVTIGDLSAAEVTRTGTEITDAEVDKTIDILRKQRVHYHARGEAGEHGDGGADVAAQNGDRVTLDFVGKIDGEEFAGGKAEDFPFVLGEGRMLPEFEQAALGLKVGESKTFPLAFPEDYHGKEVAGKTAEFTVTLKKIEWAHLPEVNDAFAKSLGIADGSVEKMRADIRENLEREVKRRTHSMLKDQVMEALLKASELEVPKALIEQDQERLVEMARRDLEQRGMPNAKDMPIPAEMFAQQAERRVKLGLILAEIVKANGLEAKADQIKAEIEDFAKSYEDPKEVMRWYYGDQQRLAEMEAYVLENNVVNFVCGKAKVTDKKVSFEELTAEGNQQQA
B9: DNAK_CUPNH (protein, UniProt Q0K757 1-650, looked up)
Chaperone protein DnaK: MGKIIGIDLGTTNSCVAILEGNTPKVIENSEGARTTPSIIAYMEDGEILVGAPAKRQAVTNPRNTLYAVKRLIGRKFEEKEVQKDIGLMPYSIVKADNGDAWVSVRDQKLAPPQVSAEVLRKMKKTAEDYLGEPVTEAVITVPAYFNDSQRQATKDAGRIAGLDVKRIINEPTAAALAFGMDKNEKGDRKIAVYDLGGGTFDISIIEIADVDGEKQFEVLSTNGDTFLGGEDFDQRIIDYIISEFKKDQGVDLSKDVLALQRLKEAAEKAKIELSSSQQTEINLPYITADASGPKHLNLKMTRAKLESLVEELITRTIEPCRIAIKDAGVKVSDIDDVILVGGMTRMPKVQEQVKEFFGKEARKDVNPDEAVAVGAAIQGSVLSGDRTDVLLLDVTPLSLGIETLGGVMTKMITKNTTIPTKHAQVFSTADDNQPAVTIKVFQGEREMASGNKLLGEFNLEGIPPAARGTPQIEVSFDIDANGILHVGAKDKATGKENRITIKANSGLSEDEIQRMVKDAEANAEEDKKARELADARNQADALIHSTKKALTEYGDKLEAGEKEKIEAAIKELEDAARGGDKAEIDAKVNALSEVSQKLGEKVYADMQAKAGEGATAGAAAGAGAAGGQQAQPQDDNVVDAEFKEVNDKK
B10: EFTS_CUPNH (protein, UniProt Q0KA17 1-292, looked up)
Elongation factor Ts: MAAITASMVAELRAKTDAPMMECKKALTEADGDLDKAEELLRVKLGNKASKAASRVTAEGVVASFIDGTTGVLVELNCETDFVSKNDDFLAFSAKVAELIAKQNPADVAALSALEIDGVSVEATRTALIGKIGENLTIRRFARYANGGKLVSYLHGTRIGVMVEFDGDEAAAKDVAMHVAAMKPVSLSAEQVPADLIAKERSIAEQKAAESGKPAEIVAKMVEGSVQKYLKEVSLFNQPFVKNDKQTVEQMLKAANTTVKGFTLFVVGEGIEKKQDDFAAEVAAQVAAAQKG
B11: TPIS_CUPNH (protein, UniProt Q0KCT2 1-245, looked up)
Triosephosphate isomerase: MRQKLVIGNWKMHGSLAANAALLEGIKAGAAKATLAVCAPFPYLAQCQALLNGSQVAWGAQDVSAEARGAFTGEVSASMVGEFGCTYVLVGHSERRTYHGETDQTVAAKALRALEFGIVPVVCVGETLAQREAGETEAVVGRQLQAVLDALTVEQLSRVVLAYEPVWAIGTGKTATSEQAQAVHAFLRGQVAARDAGVAERMAILYGGSVKPDNAAELFSMTDIDGGLIGGASLKSADFLAIGNA
B12: GLYA_CUPNH (protein, UniProt Q0K7W0 1-415, looked up)
Serine …: MFERSRFTIDQIDPEVFAAIQQENQRQEDHIELIASENYTSPAVMAAQGSQLTNKYAEGYPGKRYYGGCEYVDVVEQLAIDRVKQLFGAEAANVQPNSGSQANQGVYFAVLKPGDTIMGMSLAEGGHLTHGMALNMSGKWFNVVSYGLNAQEDIDYDALEKLAQEKKPKLIIAGASAFALRIDFERISKVAKSIGAYFMVDMAHYAGLIAAGVYPNPVPHADFVTTTTHKSLRGPRGGVILMKAEHEKAINSAIFPGIQGGPLMHVIAGKAVAFKEALTPEFKEYQQQVVKNAAVLAETLIARGLRIVSGRTESHVMLVDLRAKNITGKEAERILGEAHITVNKNAIPNDPEKPFVTSGIRLGSPAMTTRGFKEEEARIVGNLIADVLDNPHDAANIASVREQAAALTKRFPVYG
B13: ILVC_CUPNH (protein, UniProt Q0KCU2 1-338, looked up)
Ketol-acid reductoisomerase …: MKVFYDKDADLSLIKGKNVTIIGYGSQGHAHALNLKDSGVNVTVGLRKSGASWNKAANAGLQVKEVAEAVKGADVVMILLPDEQIADVYKNEVHDNIKEGAALAFAHGFNVHYGAVIPRADLDVIMIAPKAPGHTVRATYTQGGGVPHLIAVHQNKSGAARDIALSYATANGGGRAGIIETNFREETETDLFGEQAVLCGGTVELIKAGFETLVEAGYAPEMAYFECLHELKLIVDLIYEGGIANMNYSISNNAEYGEYVTGPRVVTEETKKAMKQCLTDIQTGEYAKSFLLENKAGAPTLISRRRLTAEHQIEEVGAKLRAMMPWIAKNKMVDQSKN
B14: LPXA_CUPNH (protein, UniProt Q0KA28 1-267, looked up)
Acyl-[acyl-carrier-protein]--U …: MTQIHPTALVDPKAELASDVTVGPFSIVGPNVRIGSGTRVGSHTTVEGYTTIGEGNTIGPYASVGGVPQDMKYRNEPTRLEIGDRNTIREFTTIHTGTVQDRGLTSLGNDNWIMAYVHIAHDCTVGNHTVFSSNAQIAGHVEVGDWAILGGMSGVHQFVRIGAHAMLGGASALVQDVPPFVIAASDKSGNKATPHGVNVEGLRRRGFDAGQIAALRQAYKLLYKSDLSFDEARNEITALLGQSDAGTAAPLRAFVDFLAATQRGIVR

test system: Ralstonia eutropha DSM428; assay: Quantitative proteomics of Ralstonia eutropha DSM428 cultivated with or without levulinic acid (nanoLC-MS/MS); assay type: cell-based; details: Ralstonia eutropha DSM428, shake flasks, LB rich medium, 0 g/L levulinic acid; nanoLC-MS/MS protein abundance

Row | Molecule | % of total proteins Without LA
1 | B1 | 0.40 % of total proteins
2 | B2 | 0.41 % of total proteins
3 | B3 | 0.25 % of total proteins
4 | B4 | 0.29 % of total proteins
5 | B5 | 1.19 % of total proteins
6 | B6 | 1.77 % of total proteins
7 | B7 | 0.14 % of total proteins
8 | B8 | 0.51 % of total proteins
9 | B9 | 1.18 % of total proteins
10 | B10 | 0.65 % of total proteins
11 | B11 | 0.19 % of total proteins
12 | B12 | 1.01 % of total proteins
13 | B13 | 1.06 % of total proteins
14 | B14 | 0.20 % of total proteins

same assay, conditions: Ralstonia eutropha DSM428, shake flasks, LB rich medium, 5 g/L levulinic acid; nanoLC-MS/MS protein abundance

Row | Molecule | % of total proteins With LA
15 | B1 | 0.34 % of total proteins
16 | B2 | 0.39 % of total proteins
17 | B3 | 0.21 % of total proteins
18 | B4 | 0.30 % of total proteins
19 | B5 | 1.38 % of total proteins
20 | B6 | 1.46 % of total proteins
21 | B7 | 0.11 % of total proteins
22 | B8 | 0.56 % of total proteins
23 | B9 | 0.90 % of total proteins
24 | B10 | 0.68 % of total proteins
25 | B11 | 0.14 % of total proteins
26 | B12 | 0.91 % of total proteins
27 | B13 | 0.95 % of total proteins
28 | B14 | 0.22 % of total proteins
